Experimental data: article PMC7726220
Results are given in words; binding and its absence hold for the method and conditions named. In cells and extracts the contact can be indirect. Some results given as binding are weak or reduced against the parent protein; the word gives no strength. Tags and fused reporters may be left off the sequences shown.

Experiments:
Assay in all cases: co-IP; HEK 293T cells transiently transfected with tagged constructs (or endogenous partner); lysis in 50 mM Tris-HCl pH 8.0, 150 mM NaCl, 10% glycerol, 1 mM EDTA, 1% DDM or 0.5% NP-40; anti-Flag M2, anti-c-Myc or anti-HA magnetic beads; Western blot; in Figure 6D with or without overexpressed TMEM132A
[1] = biological target: T1, Flag-tagged full-length TMEM132A (FL T132A-Flag) (mouse) (UniProt Q922P8)
T1 sequence: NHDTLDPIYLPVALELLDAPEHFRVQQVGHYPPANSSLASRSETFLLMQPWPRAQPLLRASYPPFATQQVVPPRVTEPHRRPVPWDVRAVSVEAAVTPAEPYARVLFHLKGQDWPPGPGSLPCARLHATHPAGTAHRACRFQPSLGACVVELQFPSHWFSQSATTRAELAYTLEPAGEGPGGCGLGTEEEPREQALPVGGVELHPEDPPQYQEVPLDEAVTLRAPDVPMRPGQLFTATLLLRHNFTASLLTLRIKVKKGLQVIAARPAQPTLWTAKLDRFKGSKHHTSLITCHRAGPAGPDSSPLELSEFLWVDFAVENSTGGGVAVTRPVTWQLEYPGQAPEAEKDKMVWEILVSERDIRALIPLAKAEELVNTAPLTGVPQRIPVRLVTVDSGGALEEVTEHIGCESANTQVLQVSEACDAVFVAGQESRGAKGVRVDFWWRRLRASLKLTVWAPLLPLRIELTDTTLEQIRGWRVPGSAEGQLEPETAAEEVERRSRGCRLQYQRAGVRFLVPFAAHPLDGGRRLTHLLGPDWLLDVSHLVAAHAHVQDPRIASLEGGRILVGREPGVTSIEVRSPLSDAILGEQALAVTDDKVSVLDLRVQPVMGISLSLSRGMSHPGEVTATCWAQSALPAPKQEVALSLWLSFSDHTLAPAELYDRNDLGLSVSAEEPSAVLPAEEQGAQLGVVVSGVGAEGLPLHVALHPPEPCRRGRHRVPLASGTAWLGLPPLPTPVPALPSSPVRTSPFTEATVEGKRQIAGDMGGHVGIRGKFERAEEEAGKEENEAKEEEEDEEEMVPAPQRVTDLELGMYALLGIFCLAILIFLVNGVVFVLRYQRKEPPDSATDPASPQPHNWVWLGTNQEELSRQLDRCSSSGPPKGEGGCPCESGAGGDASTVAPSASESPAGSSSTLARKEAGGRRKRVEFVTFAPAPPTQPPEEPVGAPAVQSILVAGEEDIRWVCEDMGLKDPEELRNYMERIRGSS

[2] = biological target: T2, SNT truncation of T132A-Flag (mouse) (UniProt Q922P8)
T2 sequence: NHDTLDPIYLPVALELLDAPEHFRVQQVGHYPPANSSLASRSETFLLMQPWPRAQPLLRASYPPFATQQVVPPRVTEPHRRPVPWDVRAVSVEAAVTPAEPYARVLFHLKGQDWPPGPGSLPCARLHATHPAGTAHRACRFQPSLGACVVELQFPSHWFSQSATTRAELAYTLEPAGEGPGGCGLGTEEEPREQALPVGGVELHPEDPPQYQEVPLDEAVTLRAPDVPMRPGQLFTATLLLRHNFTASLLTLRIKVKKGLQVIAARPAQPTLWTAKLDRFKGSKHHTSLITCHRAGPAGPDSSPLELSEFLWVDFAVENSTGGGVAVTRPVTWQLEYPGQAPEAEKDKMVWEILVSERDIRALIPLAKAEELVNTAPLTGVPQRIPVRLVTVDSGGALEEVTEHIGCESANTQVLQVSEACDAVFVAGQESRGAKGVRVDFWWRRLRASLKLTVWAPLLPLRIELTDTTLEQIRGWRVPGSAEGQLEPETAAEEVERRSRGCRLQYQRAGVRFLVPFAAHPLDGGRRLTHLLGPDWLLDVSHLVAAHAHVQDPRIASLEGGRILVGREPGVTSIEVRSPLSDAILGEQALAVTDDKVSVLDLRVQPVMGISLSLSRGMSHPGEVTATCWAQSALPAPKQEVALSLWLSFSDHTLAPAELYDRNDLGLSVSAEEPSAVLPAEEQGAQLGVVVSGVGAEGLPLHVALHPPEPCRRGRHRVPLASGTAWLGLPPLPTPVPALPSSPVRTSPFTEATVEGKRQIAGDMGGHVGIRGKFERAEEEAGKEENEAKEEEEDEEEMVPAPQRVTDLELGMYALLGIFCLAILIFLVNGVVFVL

[3] = biological target: T3, ST construct of T132A-Flag (only the signal peptide and TM domain) (mouse) (UniProt Q922P8)
T3 sequence: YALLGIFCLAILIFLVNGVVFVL

[4] = biological target: T4, STC truncation of T132A-Flag (mouse) (UniProt Q922P8)
T4 sequence: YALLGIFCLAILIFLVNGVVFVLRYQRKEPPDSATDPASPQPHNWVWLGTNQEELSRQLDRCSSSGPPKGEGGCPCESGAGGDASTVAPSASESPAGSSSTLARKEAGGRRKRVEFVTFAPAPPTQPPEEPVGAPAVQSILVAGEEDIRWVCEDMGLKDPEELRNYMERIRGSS

Measured: binding

B1: HA-tagged full-length WLS (FL WLS-HA) (protein, UniProt Q6DID7-1 1-541)
chain: MAGAIIENMSTKKLCIVGGILLVFQIVAFLVGGLIAPAPTTAVPYTAIKCVDVRKNHHKTRWLAPWGPNKCDKIRDIEEAIPREIEANDIVFSVHIPLPSMEMSPWFQFMLFILQLDIAFKLNNQIRENAEISMDVSLGYRDDMFSEWTEMAHERVPRKLKCTFTSPKTPEHEGRYYNCDVLPFMEIGSVAHKYYLLNIRLPVNEKKKINVGIGEIKDIRLVGIHQNGGFTKVWFAMKTFLTPSIFIIMVWYWRRITMMSRPPVLLEKVIFALGISMTFINIPVEWFSIGFDWTWMLLFGDIRQGIFYAMLLSFWIIFCGEHMMDQHERNHIAGYWKQVGPIAVGSFCLFIFDMCERGVQLTNPFYSIWTTDVGTELAMAFIIVAGICLCLYFLFLCFMVFQVFRNISGKQSSLPAMSKVRRLHYEGLIFRFKFLMLITLACAAMTVIFFIVSQVSEGHWKWGGVTVQVSSAFFTGIYGMWNLYVFALMFLYAPSHKNYGEDQSNGDLGVHSGEELQLTTTITHVDGPTEIYKLTRKEAQE
binds: all assays above
